Results published in patent publication US20090060920A1.
These are yes or no findings as the source states them, for the method shown. Some entries that bind do so weakly or less than the wild type.

T1: desacyl human ghrelin (human)
T1 sequence (peptide): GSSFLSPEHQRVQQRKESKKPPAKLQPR

T2: 1-8 (cys) desacyl ghrelin (human)
T2 sequence (peptide): GSSFLSPEC


What was measured:
Fab 5611 = experiment: competition ELISA: peptide preincubated with 10 nM Fab 5611, mixture added to a plate coated with desacyl ghrelin, bound Fab detected with anti-mouse kappa-HRP, A490
[1] = target: T1, desacyl human ghrelin (human); experiment: competition ELISA, FIG. 1
[2] = target: T2, 1-8 (cys) desacyl ghrelin (human); experiment: competition ELISA, FIG. 2
[3] = target: T1, desacyl human ghrelin (human); experiment: competition ELISA, FIG. 2
[4] = target: T1, desacyl human ghrelin (human); experiment: competition ELISA, FIG. 3

binding (Fab 5611) | binding [1] | binding [2] | binding [3] | binding [4] | Binder
binds |  |  |  |  | GSSFLSPEC [1-8 (cys) desacyl ghrelin]
 | binds | binds | binds | binds | Fab 5611 (Fab, V domains shown) VH: QVQLQQSEAELVRPGSSVKISCKASGYAFSNYWMNWVKQRPGQGLEWIGQIYPGDGDTKYNGKFKGKATLTADKSSSSAYMQLSSLTSEDSAVYFCVITTVVGGDSDVWGAGTTVTVSS VL: DLVLTQSPASLAVSLGQRATISCRASKSVSTSGYSYMHWYQQKPGQPPKLLIYLASNLESGVPARFSGSGSGTDFTLNIHPVEEEDAATYYCQHSRELPYTFGGGTKLEIKR
